In paper PMC4058014:
No constants are given. Whether binding was seen depends on the method and setting. Binding seen in cells or lysates may run through a third protein. Some entries that bind do so weakly or less than the wild type.

Amino acid sequences for entries named in this document (tags omitted). A change or cut given only in a name is not applied to a line headed by its entry. Chains listed by the source or under a name are the forms on record and can include a tag or linker.
FIR–FLAG (far-upstream element-binding protein-interacting repressor, FLAG-tagged), expressed in HeLa cells (Q9UHX1, form named): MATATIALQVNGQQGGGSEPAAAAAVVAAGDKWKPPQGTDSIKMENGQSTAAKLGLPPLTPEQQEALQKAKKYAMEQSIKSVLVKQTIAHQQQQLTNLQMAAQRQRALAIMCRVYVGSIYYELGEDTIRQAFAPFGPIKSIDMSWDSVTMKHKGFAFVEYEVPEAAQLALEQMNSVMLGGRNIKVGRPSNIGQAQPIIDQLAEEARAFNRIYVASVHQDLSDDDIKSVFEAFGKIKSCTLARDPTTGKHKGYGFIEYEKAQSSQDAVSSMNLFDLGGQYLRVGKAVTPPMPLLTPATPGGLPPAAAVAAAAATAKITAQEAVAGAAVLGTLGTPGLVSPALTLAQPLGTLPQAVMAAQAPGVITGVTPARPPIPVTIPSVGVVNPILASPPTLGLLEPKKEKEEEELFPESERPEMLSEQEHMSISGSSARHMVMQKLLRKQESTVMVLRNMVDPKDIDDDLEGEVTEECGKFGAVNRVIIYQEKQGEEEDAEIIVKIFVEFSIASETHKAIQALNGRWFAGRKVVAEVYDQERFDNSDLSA
UniProt P78527: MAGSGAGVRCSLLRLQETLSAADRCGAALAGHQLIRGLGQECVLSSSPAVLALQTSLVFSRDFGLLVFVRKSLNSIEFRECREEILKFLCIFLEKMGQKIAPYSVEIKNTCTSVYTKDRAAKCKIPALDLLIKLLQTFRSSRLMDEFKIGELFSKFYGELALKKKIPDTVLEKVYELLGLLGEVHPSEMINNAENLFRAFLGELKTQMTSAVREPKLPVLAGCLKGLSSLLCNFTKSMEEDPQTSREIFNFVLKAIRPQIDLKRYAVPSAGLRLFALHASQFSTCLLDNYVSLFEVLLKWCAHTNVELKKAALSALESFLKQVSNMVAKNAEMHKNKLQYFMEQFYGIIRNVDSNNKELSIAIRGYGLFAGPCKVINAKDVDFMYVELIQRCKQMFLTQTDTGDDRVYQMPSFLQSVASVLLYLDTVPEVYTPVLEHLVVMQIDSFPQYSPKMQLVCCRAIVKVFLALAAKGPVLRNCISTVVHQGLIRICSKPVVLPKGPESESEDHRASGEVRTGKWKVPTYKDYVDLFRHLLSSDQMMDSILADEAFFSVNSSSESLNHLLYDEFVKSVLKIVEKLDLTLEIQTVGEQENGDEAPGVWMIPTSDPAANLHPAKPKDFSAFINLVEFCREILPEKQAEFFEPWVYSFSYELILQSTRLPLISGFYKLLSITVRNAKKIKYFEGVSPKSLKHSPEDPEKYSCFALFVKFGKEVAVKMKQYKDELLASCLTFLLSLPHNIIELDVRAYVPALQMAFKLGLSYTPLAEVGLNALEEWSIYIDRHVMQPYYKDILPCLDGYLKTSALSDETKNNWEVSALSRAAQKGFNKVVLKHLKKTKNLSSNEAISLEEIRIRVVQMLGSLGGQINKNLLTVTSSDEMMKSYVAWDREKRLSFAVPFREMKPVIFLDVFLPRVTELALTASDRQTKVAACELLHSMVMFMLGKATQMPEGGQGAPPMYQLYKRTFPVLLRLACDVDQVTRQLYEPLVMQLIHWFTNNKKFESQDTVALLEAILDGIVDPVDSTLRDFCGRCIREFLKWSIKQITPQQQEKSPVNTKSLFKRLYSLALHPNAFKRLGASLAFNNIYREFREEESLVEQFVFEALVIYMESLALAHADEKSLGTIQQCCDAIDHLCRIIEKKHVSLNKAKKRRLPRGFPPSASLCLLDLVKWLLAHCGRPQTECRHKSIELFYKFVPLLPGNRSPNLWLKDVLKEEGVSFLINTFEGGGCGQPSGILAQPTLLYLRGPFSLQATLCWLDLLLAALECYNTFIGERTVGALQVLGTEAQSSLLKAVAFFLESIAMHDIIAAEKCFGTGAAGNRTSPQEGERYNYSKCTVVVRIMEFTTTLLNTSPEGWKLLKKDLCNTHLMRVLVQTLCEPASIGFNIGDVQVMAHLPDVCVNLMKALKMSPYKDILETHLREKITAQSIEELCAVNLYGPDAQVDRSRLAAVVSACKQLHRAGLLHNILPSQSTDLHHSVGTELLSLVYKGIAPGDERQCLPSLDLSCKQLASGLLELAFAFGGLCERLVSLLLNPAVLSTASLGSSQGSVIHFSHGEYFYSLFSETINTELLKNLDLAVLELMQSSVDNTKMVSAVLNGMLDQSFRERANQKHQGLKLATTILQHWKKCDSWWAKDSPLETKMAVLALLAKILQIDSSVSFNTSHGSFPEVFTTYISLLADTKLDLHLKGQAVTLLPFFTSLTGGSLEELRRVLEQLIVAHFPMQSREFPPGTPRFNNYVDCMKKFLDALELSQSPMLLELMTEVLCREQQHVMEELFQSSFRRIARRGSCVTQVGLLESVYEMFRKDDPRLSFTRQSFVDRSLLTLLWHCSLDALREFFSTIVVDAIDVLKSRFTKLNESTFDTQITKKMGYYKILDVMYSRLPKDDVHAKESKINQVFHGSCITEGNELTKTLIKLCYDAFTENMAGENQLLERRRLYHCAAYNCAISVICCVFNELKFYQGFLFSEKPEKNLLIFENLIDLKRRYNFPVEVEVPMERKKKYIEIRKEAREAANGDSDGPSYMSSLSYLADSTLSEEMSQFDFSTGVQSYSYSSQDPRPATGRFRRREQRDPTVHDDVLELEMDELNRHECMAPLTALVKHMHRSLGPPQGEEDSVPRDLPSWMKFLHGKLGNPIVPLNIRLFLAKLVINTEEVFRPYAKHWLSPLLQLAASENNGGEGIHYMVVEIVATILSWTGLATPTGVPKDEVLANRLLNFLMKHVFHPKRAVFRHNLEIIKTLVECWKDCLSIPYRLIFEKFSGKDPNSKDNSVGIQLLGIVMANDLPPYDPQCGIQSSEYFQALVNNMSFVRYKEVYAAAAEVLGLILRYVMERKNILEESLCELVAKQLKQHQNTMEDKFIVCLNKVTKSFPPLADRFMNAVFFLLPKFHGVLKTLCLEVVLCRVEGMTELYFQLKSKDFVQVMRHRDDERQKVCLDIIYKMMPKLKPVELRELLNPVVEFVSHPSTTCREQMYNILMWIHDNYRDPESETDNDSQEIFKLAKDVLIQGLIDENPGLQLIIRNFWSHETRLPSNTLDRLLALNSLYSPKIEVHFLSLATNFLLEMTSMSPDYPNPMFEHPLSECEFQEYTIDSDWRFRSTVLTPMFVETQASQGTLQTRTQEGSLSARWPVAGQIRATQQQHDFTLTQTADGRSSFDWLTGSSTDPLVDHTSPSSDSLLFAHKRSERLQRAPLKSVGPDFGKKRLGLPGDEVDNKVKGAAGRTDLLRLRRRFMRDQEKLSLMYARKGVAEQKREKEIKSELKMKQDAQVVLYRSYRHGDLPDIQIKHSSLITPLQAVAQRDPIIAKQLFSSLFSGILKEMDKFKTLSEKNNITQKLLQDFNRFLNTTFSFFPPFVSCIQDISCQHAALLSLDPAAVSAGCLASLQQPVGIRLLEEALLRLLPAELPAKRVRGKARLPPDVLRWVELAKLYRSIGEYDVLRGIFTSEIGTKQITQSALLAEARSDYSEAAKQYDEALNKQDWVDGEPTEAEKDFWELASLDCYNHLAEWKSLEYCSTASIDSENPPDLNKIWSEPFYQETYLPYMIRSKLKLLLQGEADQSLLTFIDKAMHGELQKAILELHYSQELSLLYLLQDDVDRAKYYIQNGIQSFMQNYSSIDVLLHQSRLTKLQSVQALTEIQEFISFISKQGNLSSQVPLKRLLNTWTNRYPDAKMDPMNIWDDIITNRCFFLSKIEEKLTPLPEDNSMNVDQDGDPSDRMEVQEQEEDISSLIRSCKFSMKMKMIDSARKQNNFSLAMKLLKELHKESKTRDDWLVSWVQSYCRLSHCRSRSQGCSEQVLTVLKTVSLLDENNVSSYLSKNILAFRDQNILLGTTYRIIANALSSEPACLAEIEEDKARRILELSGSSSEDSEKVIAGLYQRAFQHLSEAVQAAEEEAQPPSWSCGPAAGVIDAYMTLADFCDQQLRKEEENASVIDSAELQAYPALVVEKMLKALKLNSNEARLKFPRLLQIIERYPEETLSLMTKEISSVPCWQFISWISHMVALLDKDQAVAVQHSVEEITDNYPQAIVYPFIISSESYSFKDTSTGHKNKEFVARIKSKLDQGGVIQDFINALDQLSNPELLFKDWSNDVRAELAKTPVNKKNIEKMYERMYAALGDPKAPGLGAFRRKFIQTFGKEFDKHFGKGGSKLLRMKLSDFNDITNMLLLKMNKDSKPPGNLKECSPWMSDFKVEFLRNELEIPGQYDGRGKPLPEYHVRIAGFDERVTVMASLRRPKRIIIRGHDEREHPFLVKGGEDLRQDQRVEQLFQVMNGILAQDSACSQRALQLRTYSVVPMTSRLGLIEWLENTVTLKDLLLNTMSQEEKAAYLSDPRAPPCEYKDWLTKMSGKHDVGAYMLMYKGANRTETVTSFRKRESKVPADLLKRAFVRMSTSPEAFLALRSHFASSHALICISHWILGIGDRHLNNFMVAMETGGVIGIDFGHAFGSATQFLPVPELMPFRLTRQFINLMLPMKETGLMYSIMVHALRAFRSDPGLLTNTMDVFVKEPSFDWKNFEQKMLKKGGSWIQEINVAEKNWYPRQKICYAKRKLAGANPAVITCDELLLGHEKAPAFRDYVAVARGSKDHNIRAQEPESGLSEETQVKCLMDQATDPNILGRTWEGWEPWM
UniProt O75533: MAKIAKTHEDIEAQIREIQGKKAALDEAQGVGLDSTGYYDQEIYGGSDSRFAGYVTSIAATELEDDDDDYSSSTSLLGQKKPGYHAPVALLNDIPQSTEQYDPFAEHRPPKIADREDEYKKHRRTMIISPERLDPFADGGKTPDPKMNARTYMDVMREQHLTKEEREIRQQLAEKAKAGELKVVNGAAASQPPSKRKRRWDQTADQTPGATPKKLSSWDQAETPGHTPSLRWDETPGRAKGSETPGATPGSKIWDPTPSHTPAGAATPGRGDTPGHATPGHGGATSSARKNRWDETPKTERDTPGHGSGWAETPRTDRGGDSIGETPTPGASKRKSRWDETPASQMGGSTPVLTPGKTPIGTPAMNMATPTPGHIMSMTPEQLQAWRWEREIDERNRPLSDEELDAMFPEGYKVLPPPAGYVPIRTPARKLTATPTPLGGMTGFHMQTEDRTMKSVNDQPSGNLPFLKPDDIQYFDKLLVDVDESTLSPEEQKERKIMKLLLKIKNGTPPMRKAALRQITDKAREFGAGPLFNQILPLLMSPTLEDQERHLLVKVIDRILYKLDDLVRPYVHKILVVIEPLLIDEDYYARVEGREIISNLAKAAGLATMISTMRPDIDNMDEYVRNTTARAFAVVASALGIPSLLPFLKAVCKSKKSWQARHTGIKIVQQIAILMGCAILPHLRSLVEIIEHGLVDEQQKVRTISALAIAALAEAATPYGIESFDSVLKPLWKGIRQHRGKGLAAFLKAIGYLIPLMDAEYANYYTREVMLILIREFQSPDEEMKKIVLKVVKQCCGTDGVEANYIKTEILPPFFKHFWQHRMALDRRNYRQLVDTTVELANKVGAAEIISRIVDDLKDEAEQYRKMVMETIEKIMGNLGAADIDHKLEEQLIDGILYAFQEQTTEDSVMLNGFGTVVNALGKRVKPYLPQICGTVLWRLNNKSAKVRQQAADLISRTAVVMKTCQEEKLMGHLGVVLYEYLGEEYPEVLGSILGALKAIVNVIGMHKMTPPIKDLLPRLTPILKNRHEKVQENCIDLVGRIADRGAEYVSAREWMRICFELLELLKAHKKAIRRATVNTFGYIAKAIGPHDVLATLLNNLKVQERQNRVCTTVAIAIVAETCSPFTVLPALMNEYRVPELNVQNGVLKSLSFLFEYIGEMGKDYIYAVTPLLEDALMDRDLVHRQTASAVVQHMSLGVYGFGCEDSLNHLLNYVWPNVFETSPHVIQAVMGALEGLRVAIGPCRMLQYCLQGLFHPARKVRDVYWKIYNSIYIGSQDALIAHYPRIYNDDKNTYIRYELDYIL

Columns and labels:
[1] = target: FIR–FLAG (far-upstream element-binding protein-interacting repressor, FLAG-tagged), expressed in HeLa cells (UniProt Q9UHX1); assay: co-IP; pull-down from HeLa cells stably expressing FIR–FLAG or FIRΔexon2–FLAG; blot for DNA-PKcs and SAP155
[2] = target: FIR–FLAG (far-upstream element-binding protein-interacting repressor, FLAG-tagged), expressed in HeLa cells (UniProt Q9UHX1); assay: co-IP; pull-down from HeLa cells transiently expressing FIR–FLAG, FIRΔexon2–FLAG or PUF60–FLAG; blot for Ku86 and SAP155; mock: empty vector

binding [1] | binding [2] | Substance
binds |  | DNA-PKcs (catalytic subunit of DNA protein kinase) (from UniProt P78527 1-4128)
 | binds | SAP155 (subunit of splicing factor 3b) (from UniProt O75533 1-1304)
